Test results as given in the supplement of paper PMC10849652.
This is one part of the list.

Sequences of proteins named here, by UniProt entry; tags and fusion partners are left off. A change or cut given only in a name is not applied to a line headed by its entry.
UniProt Q13144, whole entry, looked up: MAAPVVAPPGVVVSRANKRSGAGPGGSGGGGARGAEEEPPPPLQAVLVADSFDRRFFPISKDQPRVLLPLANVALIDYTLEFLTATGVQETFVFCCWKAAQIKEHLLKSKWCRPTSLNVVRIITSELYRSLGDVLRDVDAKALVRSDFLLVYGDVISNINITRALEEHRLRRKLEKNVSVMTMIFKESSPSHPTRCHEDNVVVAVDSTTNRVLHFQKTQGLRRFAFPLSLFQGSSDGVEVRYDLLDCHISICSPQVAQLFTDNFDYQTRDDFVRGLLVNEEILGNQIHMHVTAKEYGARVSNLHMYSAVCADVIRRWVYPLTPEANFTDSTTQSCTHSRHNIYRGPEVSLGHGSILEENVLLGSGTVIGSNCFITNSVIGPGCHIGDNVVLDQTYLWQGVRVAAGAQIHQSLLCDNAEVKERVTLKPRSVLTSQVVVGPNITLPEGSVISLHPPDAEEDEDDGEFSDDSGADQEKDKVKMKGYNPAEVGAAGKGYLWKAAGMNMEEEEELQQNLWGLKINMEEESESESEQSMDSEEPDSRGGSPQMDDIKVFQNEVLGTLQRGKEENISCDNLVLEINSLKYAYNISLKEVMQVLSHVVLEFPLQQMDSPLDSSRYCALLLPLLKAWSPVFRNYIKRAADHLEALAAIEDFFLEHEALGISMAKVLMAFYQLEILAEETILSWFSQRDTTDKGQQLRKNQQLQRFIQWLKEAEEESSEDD
UniProt Q9GZV4: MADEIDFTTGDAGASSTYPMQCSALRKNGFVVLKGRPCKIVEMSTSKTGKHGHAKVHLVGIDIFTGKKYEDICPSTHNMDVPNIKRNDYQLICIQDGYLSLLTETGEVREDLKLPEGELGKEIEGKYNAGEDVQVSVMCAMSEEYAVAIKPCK
UniProt P19525: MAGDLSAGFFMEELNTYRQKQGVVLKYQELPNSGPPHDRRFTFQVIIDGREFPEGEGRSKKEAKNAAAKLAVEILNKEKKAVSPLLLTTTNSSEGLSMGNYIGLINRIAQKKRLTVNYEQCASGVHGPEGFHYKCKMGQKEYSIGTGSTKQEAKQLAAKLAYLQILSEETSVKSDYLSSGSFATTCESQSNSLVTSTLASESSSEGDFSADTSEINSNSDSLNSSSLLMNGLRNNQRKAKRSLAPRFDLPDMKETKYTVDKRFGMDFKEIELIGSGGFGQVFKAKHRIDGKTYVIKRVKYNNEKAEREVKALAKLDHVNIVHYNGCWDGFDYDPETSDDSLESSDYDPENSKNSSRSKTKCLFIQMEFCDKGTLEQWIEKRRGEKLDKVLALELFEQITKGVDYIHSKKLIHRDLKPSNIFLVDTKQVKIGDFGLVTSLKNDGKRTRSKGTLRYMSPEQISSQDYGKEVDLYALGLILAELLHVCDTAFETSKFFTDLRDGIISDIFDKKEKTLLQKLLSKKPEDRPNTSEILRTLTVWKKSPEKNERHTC
UniProt P54760: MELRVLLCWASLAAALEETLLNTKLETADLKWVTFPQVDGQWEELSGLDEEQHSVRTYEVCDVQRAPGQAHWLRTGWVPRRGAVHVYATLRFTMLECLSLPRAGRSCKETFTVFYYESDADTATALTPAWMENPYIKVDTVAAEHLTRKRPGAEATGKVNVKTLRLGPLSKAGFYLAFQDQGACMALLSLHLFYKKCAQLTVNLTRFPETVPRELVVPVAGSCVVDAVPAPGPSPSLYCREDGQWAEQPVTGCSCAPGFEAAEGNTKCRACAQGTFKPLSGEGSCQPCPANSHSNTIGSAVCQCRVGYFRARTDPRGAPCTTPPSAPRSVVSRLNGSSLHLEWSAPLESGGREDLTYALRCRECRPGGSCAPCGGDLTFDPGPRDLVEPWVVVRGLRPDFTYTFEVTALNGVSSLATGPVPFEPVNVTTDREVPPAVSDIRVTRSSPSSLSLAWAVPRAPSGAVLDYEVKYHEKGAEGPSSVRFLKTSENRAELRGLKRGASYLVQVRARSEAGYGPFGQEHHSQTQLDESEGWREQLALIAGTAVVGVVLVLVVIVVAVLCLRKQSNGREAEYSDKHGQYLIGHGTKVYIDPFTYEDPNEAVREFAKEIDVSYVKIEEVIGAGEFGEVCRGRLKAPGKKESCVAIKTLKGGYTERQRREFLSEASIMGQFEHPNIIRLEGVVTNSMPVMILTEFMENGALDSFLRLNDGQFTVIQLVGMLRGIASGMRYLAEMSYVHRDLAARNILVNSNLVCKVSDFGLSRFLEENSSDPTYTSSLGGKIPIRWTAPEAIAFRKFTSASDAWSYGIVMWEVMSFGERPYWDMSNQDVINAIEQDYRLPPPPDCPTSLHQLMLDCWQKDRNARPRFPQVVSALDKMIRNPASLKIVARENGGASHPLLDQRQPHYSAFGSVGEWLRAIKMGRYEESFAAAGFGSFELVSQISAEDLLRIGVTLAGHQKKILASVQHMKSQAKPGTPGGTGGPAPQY
UniProt Q92889: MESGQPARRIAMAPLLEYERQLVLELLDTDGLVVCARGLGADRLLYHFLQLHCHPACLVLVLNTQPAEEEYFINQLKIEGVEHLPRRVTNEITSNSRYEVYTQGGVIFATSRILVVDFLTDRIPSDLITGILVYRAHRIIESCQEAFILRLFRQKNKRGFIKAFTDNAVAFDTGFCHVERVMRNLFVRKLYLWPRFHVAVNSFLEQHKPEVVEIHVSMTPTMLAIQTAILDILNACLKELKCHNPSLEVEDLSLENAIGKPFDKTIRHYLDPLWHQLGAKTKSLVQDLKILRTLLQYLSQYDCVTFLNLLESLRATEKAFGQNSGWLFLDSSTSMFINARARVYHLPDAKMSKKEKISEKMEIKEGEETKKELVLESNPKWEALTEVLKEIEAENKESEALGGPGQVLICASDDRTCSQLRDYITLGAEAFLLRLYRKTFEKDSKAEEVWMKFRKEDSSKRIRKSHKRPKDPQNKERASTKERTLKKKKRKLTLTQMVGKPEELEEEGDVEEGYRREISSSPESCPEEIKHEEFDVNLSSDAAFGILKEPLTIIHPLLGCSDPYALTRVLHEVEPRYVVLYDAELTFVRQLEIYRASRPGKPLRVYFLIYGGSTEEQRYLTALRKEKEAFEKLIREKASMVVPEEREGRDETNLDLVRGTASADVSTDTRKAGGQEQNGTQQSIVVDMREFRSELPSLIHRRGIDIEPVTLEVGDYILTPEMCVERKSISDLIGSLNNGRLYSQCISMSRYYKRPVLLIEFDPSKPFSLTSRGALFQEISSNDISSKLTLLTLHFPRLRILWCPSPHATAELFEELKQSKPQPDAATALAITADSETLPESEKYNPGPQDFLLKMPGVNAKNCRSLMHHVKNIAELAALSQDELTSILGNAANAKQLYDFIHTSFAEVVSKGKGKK
UniProt Q9NR50: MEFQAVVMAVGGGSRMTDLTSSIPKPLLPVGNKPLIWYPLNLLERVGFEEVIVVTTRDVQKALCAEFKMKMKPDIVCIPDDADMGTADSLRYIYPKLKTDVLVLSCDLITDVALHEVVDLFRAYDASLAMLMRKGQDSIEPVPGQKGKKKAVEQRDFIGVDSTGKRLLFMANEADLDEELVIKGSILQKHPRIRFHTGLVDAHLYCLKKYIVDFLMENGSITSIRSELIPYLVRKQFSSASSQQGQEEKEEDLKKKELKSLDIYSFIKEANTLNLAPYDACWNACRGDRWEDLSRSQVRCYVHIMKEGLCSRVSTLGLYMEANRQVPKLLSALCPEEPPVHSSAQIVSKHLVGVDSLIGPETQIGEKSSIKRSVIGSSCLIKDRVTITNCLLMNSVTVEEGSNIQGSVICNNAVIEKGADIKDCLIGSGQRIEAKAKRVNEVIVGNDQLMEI
UniProt P41091, whole entry, looked up: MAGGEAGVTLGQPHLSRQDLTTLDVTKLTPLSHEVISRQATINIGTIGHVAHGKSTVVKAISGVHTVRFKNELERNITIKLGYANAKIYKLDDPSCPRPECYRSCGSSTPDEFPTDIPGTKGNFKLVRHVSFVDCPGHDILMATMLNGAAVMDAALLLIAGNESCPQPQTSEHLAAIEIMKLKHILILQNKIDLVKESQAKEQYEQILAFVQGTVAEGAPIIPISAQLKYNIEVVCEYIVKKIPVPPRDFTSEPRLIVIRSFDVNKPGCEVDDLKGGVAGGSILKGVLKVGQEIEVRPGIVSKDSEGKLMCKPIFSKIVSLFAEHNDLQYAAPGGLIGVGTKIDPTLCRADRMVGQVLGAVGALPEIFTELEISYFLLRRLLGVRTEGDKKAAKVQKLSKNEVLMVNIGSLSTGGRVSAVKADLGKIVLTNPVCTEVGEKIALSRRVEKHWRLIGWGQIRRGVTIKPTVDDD
UniProt Q92979: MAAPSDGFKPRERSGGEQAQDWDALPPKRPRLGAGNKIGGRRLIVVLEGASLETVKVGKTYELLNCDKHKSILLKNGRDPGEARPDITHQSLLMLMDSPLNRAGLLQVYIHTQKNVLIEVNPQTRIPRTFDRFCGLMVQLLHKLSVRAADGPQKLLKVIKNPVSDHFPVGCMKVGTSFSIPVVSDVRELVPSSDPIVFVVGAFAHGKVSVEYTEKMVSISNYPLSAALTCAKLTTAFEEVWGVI
UniProt Q8TE02: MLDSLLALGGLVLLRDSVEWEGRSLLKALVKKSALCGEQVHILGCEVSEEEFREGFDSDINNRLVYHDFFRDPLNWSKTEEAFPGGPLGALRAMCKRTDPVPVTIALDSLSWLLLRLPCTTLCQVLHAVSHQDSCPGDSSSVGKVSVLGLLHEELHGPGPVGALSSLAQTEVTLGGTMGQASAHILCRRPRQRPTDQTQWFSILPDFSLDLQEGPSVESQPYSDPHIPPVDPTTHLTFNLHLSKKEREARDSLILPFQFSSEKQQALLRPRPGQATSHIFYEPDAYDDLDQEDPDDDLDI
UniProt Q9BQI3, whole entry, looked up: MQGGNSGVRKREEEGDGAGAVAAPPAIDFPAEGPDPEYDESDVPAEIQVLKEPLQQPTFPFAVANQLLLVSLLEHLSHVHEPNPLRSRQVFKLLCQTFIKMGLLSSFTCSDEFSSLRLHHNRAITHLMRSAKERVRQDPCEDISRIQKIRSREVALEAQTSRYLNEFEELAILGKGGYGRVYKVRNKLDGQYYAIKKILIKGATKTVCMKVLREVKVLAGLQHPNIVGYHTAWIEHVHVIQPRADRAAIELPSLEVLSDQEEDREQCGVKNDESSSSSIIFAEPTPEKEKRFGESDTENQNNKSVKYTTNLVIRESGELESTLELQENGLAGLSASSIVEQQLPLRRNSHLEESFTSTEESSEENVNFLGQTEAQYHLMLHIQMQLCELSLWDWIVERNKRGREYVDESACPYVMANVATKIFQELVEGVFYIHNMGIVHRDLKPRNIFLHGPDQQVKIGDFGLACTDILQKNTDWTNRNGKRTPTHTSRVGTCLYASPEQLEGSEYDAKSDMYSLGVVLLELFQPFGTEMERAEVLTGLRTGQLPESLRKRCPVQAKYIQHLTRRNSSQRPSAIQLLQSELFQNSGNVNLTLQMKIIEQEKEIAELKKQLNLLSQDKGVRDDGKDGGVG
UniProt P23588, whole entry, looked up: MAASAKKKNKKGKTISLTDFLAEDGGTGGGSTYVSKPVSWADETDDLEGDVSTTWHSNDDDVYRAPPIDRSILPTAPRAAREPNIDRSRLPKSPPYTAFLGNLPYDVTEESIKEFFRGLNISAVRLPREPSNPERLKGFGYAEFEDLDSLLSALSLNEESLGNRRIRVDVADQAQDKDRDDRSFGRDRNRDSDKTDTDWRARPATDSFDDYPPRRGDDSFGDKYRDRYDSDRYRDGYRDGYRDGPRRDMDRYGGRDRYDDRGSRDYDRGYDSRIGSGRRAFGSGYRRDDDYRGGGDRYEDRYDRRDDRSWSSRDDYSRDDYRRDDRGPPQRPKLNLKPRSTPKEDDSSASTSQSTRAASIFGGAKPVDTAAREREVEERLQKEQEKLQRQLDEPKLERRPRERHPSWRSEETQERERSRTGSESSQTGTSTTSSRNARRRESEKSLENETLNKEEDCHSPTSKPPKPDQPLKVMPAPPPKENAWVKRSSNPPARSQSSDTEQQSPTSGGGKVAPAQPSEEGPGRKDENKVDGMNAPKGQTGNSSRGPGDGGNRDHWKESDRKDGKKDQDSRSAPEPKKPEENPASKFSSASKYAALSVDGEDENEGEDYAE

Assays:
Assay in all cases: log2 fold change, soluble protein after heating vs DMSO (PISA); higher = thermal stabilisation; K562 lysate, 10 uM; active = over 0.2 and 3.5 SD of the protein, either way, in both replicates (recomputed)
[1] = compound: C#Cc1cccc(Nc2ncnc3cc(OCCOC)c(OCCOC)cc23)c1 [erlotinib]
Procedure, shortened: (§1)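 Soluble protein was defined as the supernatant remaining after 21,000xg for 90 min, following pooling of heated aliquots and adjustment to 0.5% NP-40 at 4°C. Before that, crude K562 extract at 1 mg/mL protein in PBS pH 7.4 with 1 mM MgCl2 was treated with 10 μM compound for 30 min and heated for 3 min across 48°C-58°C. Quantification used TMTpro 16plex LC-MS/MS with channel sums equalised, and values are log-two fold changes in thermal stability relative to solvent controls from duplicates.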

[2] = compound: C/C(=N\NC(=O)C1=CC(=CC=C1)S(=O)(=O)N2CCOCC2)/C3=C(C=CC(=C3)Cl)O
Procedure, shortened: as §1

[3] = compound: C1=CC(=CC=C1C2=NC3=C(N2)C=C(C=C3)C(=O)N)OC4=CC=C(C=C4)Cl
Procedure, shortened: as §1

[4] = compound: C1=CC2=C(C=CC(=C2)/C=C\3/C(=O)NC(=NCC4=CC=CS4)S3)N=C1
Procedure, shortened: as §1

[5] = compound: C1=CC2=NC=CN=C2C=C1/C=C/3\C(=O)NC(=O)S3
Procedure, shortened: as §1

[6] = compound: C1=CC=C(C=C1)C2=NC(=C(N2)C3=CC=NC=C3)C4=CC(=C(C=C4)Cl)O
Procedure, shortened: as §1

[7] = compound: C1=CC=C2C(=C1)C3=NNC4=CC=CC(=C43)C2=O
Procedure, shortened: as §1

[8] = compound: C1CCN(C1)C(=O)NC2=CC=CC(=C2)NC3=NC=C(C(=N3)NCCC4=CN=CN4)Br
Procedure, shortened: as §1

[9] = compound: C1CN(CCC1(CC2=CC=C(C=C2)Cl)N)C3=NC=NC4=C3C=CN4
Procedure, shortened: as §1

[10] = compound: C1COCCN1CCN2C3=CC=CC=C3N=C2NC(=O)C4=CC(=CC=C4)[N+](=O)[O-] [IRAK-1-4 Inhibitor I]
Procedure, shortened: as §1

[11] = compound: C=CC(=O)N1CCC[C@@H](n2nc(-c3ccc(Oc4ccccc4)cc3)c3c(N)ncnc32)C1 [ibrutinib]
Procedure, shortened: as §1

[12] = compound: CC(=O)c1cnc2ccc(-c3cc(Cl)c(O)c(Cl)c3)nc2c1N[C@H]1CC[C@H](CN(C)C)CC1
Procedure, shortened: as §1

[13] = compound: CC(C)(C)Cn1c(N)nc2ccc(-c3[nH]c(C(C)(C)C)nc3-c3ccc(F)cc3)nc21 [ralimetinib]
Procedure, shortened: as §1

[14] = compound: CC(C)(O)CC(=O)NCCn1ccc2ncnc(Nc3ccc(Oc4cccc(C(F)(F)F)c4)c(Cl)c3)c21
Procedure, shortened: as §1

[15] = compound: CC(C)C1=C2N=C(C=C(N2N=C1)NCC3=CC=CC=C3)NCCCCCCN
Procedure, shortened: as §1

[16] = compound: CC1=C(C(CC(=O)N1)C2=CC=C(C=C2)C(F)(F)F)C(=O)NC3=C(C=C4C(=C3)C=NN4)F
Procedure, shortened: as §1

[17] = compound: CC1=C(C2=C(C=C1)C(=O)C3=CC=CC=C3N2CCCN)C
Procedure, shortened: as §1

[18] = compound: CC1=C(C=C(C=C1)NC(=O)C2=CC(=CC=C2)C(C)(C)C#N)NC3=CC4=C(C=C3)N=CN(C4=O)C
Procedure, shortened: as §1

[19] = compound: CC1=C(C=C(C=C1)NC(=O)C2=CC(=CC=C2)N(C)C)NC(=O)C3=CC=C(C=C3)O
Procedure, shortened: as §1

[20] = compound: CC1=CC=C(C=C1)SC2=C3C=C(SC3=CN=C2)C(=O)N
Procedure, shortened: as §1

Measured: log2 fold change

EIF2B5 (UniProt Q13144)
inactive: [1] 0.015 | [2] -0.052 | [3] -0.017 | [4] 0.011 | [5] 0.03 | [6] -0.011 | [7] -0.054 | [8] 0.006 | [9] 0.007 | [10] 0.027 | [11] 0 | [12] 0.008 | [13] 0.027 | [14] -0.018 | [15] 0.008 | [16] -0.019 | [17] 0.012 | [18] -0.031 | [19] 0.008 | [20] 0.02

EIF5A2 (UniProt Q9GZV4)
inactive: [1] 0.046 | [2] -0.006 | [3] 0.067 | [4] 0.01 | [5] -0.02 | [6] 0.042 | [7] -0.019 | [8] 0.02 | [9] 0.016 | [10] 0.038 | [11] 0.037 | [12] 0.032 | [13] 0.029 | [14] -0.037 | [15] 0.005 | [16] -0.079 | [17] 0.033 | [18] 0.011 | [19] -0.048 | [20] 0.012

EMC2 (UniProt Q15006)
inactive: [1] -0.022 | [2] -0.065 | [3] 0.003 | [4] 0.042 | [5] 0.032 | [6] -0.015 | [7] -0.051 | [8] -0.044 | [9] 0.043 | [10] -0.009 | [11] -0.024 | [12] -0.003 | [13] 0.032 | [14] -0.032 | [15] -0.08 | [16] 0.012 | [17] 0.012 | [18] -0.024 | [19] 0.018 | [20] -0.02

EML2 isoform 3 (UniProt O95834)
inactive: [1] -0.011 | [2] 0.023 | [3] 0.005 | [4] 0.008 | [5] 0.001 | [6] 0.018 | [7] 0.028 | [8] -0.038 | [9] -0.019 | [10] -0.011 | [11] 0.002 | [12] 0.014 | [13] 0.01 | [14] 0.01 | [15] -0.02 | [16] -0.015 | [17] 0.032 | [18] -0.042 | [19] -0.004 | [20] 0.016

EIF2AK2 (UniProt P19525)
inactive: [1] 0.02 | [2] 0.011 | [3] -0.055 | [4] -0.072 | [5] 0.003 | [6] 0.005 | [7] -0.039 | [8] -0.013 | [9] 0.016 | [10] -0.011 | [11] 0.014 | [12] 0.015 | [13] -0.025 | [14] 0.035 | [15] -0.009 | [16] 0.015 | [17] -0.008 | [18] -0.015 | [19] -0.019 | [20] -0.03

ERC1 (UniProt X6RLX0)
inactive: [1] -0.012 | [2] 0.015 | [3] 0.002 | [4] -0.029 | [5] 0.032 | [6] 0.021 | [7] -0.025 | [8] -0.023 | [9] 0.012 | [10] 0.014 | [11] 0.018 | [12] -0.027 | [13] -0.021 | [14] -0.034 | [15] -0.019 | [16] -0.013 | [17] -0.03 | [18] 0.01 | [19] -0.01 | [20] -0.038

EPHB4 (UniProt P54760)
inactive: [1] 0.06 | [2] 0.316 | [3] 0.107 | [4] 0.083 | [5] 0.039 | [6] -0.041 | [7] -0.165 | [8] -0.012 | [9] 0.094 | [10] 0.051 | [11] -0.05 | [12] 0.223 | [13] 0.072 | [14] -0.031 | [15] -0.02 | [16] 0.007 | [17] -0.06 | [18] 0.395 | [19] 0.104 | [20] -0.003

EPB41, A0A2R8Y6D0
inactive: [1] 0.134 | [2] 0.064 | [3] -0.187 | [4] -0.012 | [5] -0.004 | [6] 0.066 | [7] -0.004 | [8] -0.042 | [9] 0.054 | [10] -0.071 | [11] 0.04 | [12] 0.007 | [13] 0.171 | [14] 0.094 | [15] -0.061 | [16] -0.012 | [17] 0 | [18] -0.065 | [19] 0.078 | [20] -0.02

ERCC4 (UniProt Q92889)
inactive: [1] -0.008 | [2] -0.04 | [3] 0.033 | [4] 0.015 | [5] -0.021 | [6] -0.003 | [7] -0.096 | [8] -0.006 | [9] 0.051 | [10] 0.029 | [11] -0.02 | [12] 0.027 | [13] -0.028 | [14] 0.006 | [15] 0.059 | [16] -0.021 | [17] -0.029 | [18] 0.013 | [19] 0.025 | [20] -0.054

EIF2B3 (UniProt Q9NR50)
inactive: [1] 0.01 | [2] 0.029 | [3] -0.019 | [4] -0.009 | [5] 0.024 | [6] 0.001 | [7] -0.003 | [8] 0.014 | [9] 0.018 | [10] -0.01 | [11] 0.007 | [12] 0.02 | [13] 0.011 | [14] 0.005 | [15] 0.004 | [16] -0.004 | [17] -0.007 | [18] 0.043 | [19] 0.021 | [20] -0.004

EIF2S3 (UniProt P41091)
inactive: [1] 0.003 | [2] 0.031 | [3] -0.002 | [4] -0.042 | [5] -0.012 | [6] 0.005 | [7] 0.027 | [8] -0.002 | [9] 0.032 | [10] -0.004 | [11] -0.013 | [12] -0.027 | [13] -0.006 | [14] -0.003 | [15] -0.001 | [16] -0.015 | [17] -0.009 | [18] -0.024 | [19] -0.018 | [20] 0.01

EMG1 (UniProt Q92979)
inactive: [1] -0.019 | [2] 0.036 | [3] 0.036 | [4] 0.011 | [5] 0.015 | [6] -0.019 | [7] -0.058 | [8] 0.012 | [9] 0.019 | [10] 0.002 | [11] 0.039 | [12] -0.009 | [13] 0.035 | [14] -0.051 | [15] -0.053 | [16] -0.012 | [17] 0.021 | [18] 0.041 | [19] -0.029 | [20] 0.058

ELP5 isoform 4 (UniProt Q8TE02)
inactive: [1] 0.072 | [2] -0.063 | [3] 0.029 | [4] 0.031 | [5] 0.018 | [6] -0.012 | [7] 0.009 | [8] -0.019 | [9] -0.056 | [10] -0.002 | [11] -0.018 | [12] 0.027 | [13] 0.023 | [14] -0.04 | [15] -0.007 | [16] 0.006 | [17] 0.029 | [18] 0.053 | [19] 0.033 | [20] -0.009

EIF2AK1 (UniProt Q9BQI3)
inactive: [1] -0.016 | [2] 0.087 | [3] 0.017 | [4] -0.02 | [5] 0.029 | [6] -0.027 | [7] -0.016 | [8] -0.02 | [9] -0.006 | [10] -0.01 | [11] 0.007 | [12] -0.151 | [13] 0.028 | [14] 0.034 | [15] -0.017 | [16] -0.001 | [17] -0.007 | [18] 0.044 | [19] 0.018 | [20] -0.072

EIF4B (UniProt P23588)
inactive: [1] -0.001 | [2] 0.029 | [3] 0.012 | [4] -0.005 | [5] -0.007 | [6] 0.007 | [7] -0.012 | [8] 0.01 | [9] -0.023 | [10] 0.014 | [11] -0.031 | [12] 0.002 | [13] -0.014 | [14] -0.01 | [15] 0.005 | [16] -0.036 | [17] 0.022 | [18] 0.017 | [19] -0.028 | [20] -0.019

ENO1, A0A2R8YEM5
inactive: [1] -0.019 | [2] 0.004 | [3] 0.011 | [4] -0.017 | [5] 0.031 | [6] 0.016 | [7] 0.009 | [8] 0 | [9] 0.032 | [10] -0.031 | [11] -0.013 | [12] 0.008 | [13] -0.012 | [14] -0.016 | [15] -0.024 | [16] -0.032 | [17] 0.001 | [18] 0.012 | [19] -0.044 | [20] 0.014

Reprinted from the results shown (3 entries):
ELP5 isoform 4 (UniProt Q8TE02)
inactive: [1] 0.072 | [2] -0.063 | [3] 0.029 | [4] 0.031 | [5] 0.018 | [6] -0.012 | [7] 0.009 | [8] -0.019 | [9] -0.056 | [10] -0.002 | [11] -0.018 | [12] 0.027 | [13] 0.023 | [14] -0.04 | [15] -0.007 | [16] 0.006 | [17] 0.029 | [18] 0.053 | [19] 0.033 | [20] -0.009

EIF2AK1 (UniProt Q9BQI3)
inactive: [1] -0.016 | [2] 0.087 | [3] 0.017 | [4] -0.02 | [5] 0.029 | [6] -0.027 | [7] -0.016 | [8] -0.02 | [9] -0.006 | [10] -0.01 | [11] 0.007 | [12] -0.151 | [13] 0.028 | [14] 0.034 | [15] -0.017 | [16] -0.001 | [17] -0.007 | [18] 0.044 | [19] 0.018 | [20] -0.072

EIF4B (UniProt P23588)
inactive: [1] -0.001 | [2] 0.029 | [3] 0.012 | [4] -0.005 | [5] -0.007 | [6] 0.007 | [7] -0.012 | [8] 0.01 | [9] -0.023 | [10] 0.014 | [11] -0.031 | [12] 0.002 | [13] -0.014 | [14] -0.01 | [15] 0.005 | [16] -0.036 | [17] 0.022 | [18] 0.017 | [19] -0.028 | [20] -0.019
